No constants are given. Whether binding was seen depends on the method and setting. In cells and extracts the contact can be indirect. These calls come from enrichment with a bait or labelling near it, and not all partners need be listed. Sequences can lack the tags named with a protein.
Target: T1, UNC45B-FLAG (human) (UniProt Q8IWX7)
T1 sequence: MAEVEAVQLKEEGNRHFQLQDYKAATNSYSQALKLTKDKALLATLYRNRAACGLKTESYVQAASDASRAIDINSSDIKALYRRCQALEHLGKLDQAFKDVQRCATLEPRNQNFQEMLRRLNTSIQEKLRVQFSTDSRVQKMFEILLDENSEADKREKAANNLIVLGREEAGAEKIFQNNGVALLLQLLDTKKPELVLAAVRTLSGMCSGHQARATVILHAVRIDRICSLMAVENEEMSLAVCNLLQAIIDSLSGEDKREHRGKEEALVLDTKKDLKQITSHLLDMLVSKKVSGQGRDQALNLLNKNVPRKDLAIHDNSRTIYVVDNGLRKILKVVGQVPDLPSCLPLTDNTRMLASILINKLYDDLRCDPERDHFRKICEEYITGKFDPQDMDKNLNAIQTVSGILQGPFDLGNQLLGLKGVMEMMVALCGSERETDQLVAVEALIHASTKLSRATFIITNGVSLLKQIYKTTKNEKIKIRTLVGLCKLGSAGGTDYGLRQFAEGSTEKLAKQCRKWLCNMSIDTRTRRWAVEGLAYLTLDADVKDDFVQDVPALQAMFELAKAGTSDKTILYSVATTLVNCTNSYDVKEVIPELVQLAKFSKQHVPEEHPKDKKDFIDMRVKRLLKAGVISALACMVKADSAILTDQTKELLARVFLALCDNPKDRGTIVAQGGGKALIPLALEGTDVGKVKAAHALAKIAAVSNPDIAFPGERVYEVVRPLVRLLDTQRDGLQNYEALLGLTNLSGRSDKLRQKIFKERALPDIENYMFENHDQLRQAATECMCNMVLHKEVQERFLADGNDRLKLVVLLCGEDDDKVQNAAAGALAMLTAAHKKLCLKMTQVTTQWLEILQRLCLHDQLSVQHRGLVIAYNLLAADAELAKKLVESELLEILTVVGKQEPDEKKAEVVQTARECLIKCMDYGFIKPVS
Assay: affinity purification with mass spectrometry; co-IP of UNC45B-FLAG from lysates of UNC45B-FLAG-CMs (WT-CMs as control), shotgun proteomic identification by MS; lysis buffer 50 mM Tris-HCl pH 7.5, 1 mM EDTA, 150 mM NaCl, 1% Triton X-100, 10% glycerol, 1 mM PMSF

The chains behind the UniProt entries cited, without tags or fusion partners.
UniProt Q96AC1: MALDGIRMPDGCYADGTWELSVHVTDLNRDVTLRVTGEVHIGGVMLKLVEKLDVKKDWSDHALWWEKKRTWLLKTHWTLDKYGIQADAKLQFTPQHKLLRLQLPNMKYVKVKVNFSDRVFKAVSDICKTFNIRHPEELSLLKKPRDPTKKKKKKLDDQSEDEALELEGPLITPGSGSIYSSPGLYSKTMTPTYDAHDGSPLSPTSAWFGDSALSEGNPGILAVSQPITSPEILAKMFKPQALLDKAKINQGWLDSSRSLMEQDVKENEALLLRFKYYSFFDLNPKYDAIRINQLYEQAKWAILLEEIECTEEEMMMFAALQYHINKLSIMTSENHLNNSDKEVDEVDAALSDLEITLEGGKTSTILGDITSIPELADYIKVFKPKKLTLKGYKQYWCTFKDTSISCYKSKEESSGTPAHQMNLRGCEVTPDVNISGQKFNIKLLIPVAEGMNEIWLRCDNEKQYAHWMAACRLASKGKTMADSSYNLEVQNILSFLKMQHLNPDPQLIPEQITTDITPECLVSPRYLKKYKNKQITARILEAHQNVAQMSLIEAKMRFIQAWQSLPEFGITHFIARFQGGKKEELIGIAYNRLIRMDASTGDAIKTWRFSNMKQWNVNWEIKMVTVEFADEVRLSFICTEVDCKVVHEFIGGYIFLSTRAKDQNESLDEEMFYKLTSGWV
UniProt P08238: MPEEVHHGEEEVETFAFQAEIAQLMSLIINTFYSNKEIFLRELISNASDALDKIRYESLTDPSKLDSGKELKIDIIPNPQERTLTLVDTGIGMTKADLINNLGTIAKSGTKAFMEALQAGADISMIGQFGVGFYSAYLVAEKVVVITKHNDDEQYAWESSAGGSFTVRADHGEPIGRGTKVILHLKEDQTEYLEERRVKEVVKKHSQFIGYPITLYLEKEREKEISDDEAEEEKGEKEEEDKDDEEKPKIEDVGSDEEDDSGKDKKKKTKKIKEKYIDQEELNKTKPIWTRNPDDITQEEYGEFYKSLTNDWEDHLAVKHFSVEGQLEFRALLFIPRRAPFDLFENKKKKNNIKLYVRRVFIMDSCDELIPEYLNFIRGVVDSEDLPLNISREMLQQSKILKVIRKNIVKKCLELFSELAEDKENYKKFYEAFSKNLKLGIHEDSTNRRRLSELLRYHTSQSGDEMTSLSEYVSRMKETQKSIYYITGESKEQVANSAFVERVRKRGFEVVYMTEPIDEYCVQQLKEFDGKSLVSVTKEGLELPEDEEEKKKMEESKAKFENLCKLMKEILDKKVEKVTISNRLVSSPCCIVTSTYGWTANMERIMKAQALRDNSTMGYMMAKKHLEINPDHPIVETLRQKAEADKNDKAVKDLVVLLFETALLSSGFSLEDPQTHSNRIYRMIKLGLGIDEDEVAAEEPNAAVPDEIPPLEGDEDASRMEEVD
UniProt P13533: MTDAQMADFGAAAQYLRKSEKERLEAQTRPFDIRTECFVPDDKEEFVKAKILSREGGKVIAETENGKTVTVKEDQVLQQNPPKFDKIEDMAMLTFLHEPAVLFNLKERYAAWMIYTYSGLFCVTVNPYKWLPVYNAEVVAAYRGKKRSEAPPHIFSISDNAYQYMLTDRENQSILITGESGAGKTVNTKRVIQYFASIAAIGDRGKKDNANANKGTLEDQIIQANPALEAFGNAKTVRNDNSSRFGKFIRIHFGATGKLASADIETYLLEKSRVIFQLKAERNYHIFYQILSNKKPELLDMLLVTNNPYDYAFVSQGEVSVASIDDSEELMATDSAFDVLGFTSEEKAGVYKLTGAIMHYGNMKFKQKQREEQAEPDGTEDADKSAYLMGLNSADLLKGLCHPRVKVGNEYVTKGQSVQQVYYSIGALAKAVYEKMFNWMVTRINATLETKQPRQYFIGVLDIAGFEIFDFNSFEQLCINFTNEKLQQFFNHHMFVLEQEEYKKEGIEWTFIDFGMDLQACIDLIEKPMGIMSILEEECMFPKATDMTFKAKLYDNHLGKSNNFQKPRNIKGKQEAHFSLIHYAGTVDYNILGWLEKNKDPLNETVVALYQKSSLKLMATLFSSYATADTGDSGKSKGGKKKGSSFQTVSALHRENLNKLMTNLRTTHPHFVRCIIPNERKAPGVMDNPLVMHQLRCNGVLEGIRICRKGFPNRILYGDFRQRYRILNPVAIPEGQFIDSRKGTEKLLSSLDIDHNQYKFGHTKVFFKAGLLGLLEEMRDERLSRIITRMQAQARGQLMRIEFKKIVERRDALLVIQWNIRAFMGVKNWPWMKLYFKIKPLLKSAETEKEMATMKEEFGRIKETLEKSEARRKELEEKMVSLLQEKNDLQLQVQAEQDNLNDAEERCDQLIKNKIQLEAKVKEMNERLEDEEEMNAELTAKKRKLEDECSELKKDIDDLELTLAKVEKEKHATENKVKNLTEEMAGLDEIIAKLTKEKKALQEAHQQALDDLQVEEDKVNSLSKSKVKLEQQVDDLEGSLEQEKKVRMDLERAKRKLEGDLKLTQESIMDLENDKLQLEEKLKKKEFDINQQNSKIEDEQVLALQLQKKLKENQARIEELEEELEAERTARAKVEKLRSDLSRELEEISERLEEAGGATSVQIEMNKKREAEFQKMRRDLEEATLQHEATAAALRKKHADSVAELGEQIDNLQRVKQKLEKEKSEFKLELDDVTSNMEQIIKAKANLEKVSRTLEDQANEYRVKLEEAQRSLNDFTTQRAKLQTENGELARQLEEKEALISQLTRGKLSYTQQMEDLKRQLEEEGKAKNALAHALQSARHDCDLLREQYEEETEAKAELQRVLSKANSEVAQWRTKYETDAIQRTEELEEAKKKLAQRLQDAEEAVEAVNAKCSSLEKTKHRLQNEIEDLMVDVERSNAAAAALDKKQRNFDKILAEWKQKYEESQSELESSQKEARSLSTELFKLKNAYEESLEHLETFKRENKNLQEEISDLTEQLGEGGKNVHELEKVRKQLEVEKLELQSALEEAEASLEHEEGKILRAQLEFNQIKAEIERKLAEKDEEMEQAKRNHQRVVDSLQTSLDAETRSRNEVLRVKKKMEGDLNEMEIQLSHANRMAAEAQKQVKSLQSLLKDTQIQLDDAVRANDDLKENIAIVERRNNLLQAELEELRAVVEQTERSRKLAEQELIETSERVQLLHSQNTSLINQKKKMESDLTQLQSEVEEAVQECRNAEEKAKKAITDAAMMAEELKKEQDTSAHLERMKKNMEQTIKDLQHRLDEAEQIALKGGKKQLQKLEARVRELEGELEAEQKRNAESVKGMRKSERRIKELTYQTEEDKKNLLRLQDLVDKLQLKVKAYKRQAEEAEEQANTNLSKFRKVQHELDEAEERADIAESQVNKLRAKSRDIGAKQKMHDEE

Row | binding | Substance
1 | binds | KINDLIN2 (from UniProt Q96AC1 1-680)
2 | binds | HSP90AB1 (from UniProt P08238 1-724)
3 | binds | HSP90AA1 (from UniProt P07900 1-732)
4 | binds | muscle myosin MYH6 (from UniProt P13533 1-1939)
5 | binds | HSP70

— paper PMC10362501
